Measurements taken from PubChem BioAssay AID330 (DTP/NCI, 2004).
The list does not hold the whole screen: it gathers tests that were run many times, whatever their T/C, doses with no T/C, and many T/C values between a quarter and a half above the control. Other doses and runs of a compound stand elsewhere. T/C gives the treated animals as a percentage of the vehicle group. Some entries give survivors of the animals treated and no T/C: the source holds a T/C of zero for them, seemingly a mark for toxic or unscored doses. Some doses without a T/C left all or most animals alive at the check, yet need not have been tolerated: the source hardly ever lists a survival T/C far under the control, and the zero likely stands for such cases as well. Counts of survivors are from the toxicity check (mostly the fifth day) where no day follows; animals may have died later. Schedule codes are those of the source, taken here to give the interval after Q, in days (D) or hours (H), and the number of doses after X. Some entries hold several experiments; the results are listed from low to high. Signs of the kind (2×) count equal records among those shown. Where survival is the endpoint, this PubChem deposit counts one and a half times the control or more as active, and values a quarter to a half above the control carry no call in these data; other NCI protocols may use other cut-offs. Some T/C values carry the count of animals alive at the toxicity check (mostly the fifth day); without a count, all were alive then.

Tested on: P388 leukemia ip, CD2F1 mice, survival T/C
Experiment: NCI In Vivo Anticancer Drug Screen. Data for tumor model P388 Leukemia (intraperitoneal) in CD2F1 (CDF1) mice
Details: T/C endpoint: median survival time, higher T/C = longer survival
[1] = dose: 40.0 mg/kg/injection, schedule: Q01DX001 (ip), vehicle: water
[2] = dose: 40.0 mg/kg/injection, schedule: Q04DX003 (ip), vehicle: water

Compound: N[C@@H](Cc1ccc(N(CCCl)CCCl)cc1)C(=O)O
- T/C (dose: 20.0 mg/kg/injection, schedule: Q01DX001 (ip), vehicle: saline, evaluated on day 20): 261 % of control [6 of 8 alive]
- T/C (dose: 20.0 mg/kg/injection, schedule: Q01DX001 (ip), vehicle: saline, evaluated on day 30): 293 and 297 % of control
- T/C (dose: 20.0 mg/kg/injection, schedule: Q01DX001 (ip), vehicle: saline, evaluated on day 44): 324 % of control
- T/C (dose: 20.0 mg/kg/injection, schedule: Q01DX001 (ip), vehicle: saline, evaluated on day 45): 188, 416, 420 [9 of 10 alive], 432, 441, 445 (4×), 450 % of control
- T/C (dose: 20.0 mg/kg/injection, schedule: Q01DX001 (ip), vehicle: saline, evaluated on day 47): 451 % of control
- T/C (dose: 20.0 mg/kg/injection, schedule: Q01DX001 (ip), vehicle: saline, evaluated on day 49): 365 % of control
- T/C (dose: 20.0 mg/kg/injection, schedule: Q01DX001 (ip), vehicle: saline, evaluated on day 52): 514 % of control
- T/C (dose: 20.0 mg/kg/injection, schedule: Q01DX001 (ip), vehicle: saline, evaluated on day 60): 329, 336, 392, 540, 560, 566, 576, 582 (2×), 588, 600 % of control
- survivor count (dose: 20.0 mg/kg/injection, schedule: Q01DX001 (ip), vehicle: saline): 8 of 10 and 10 of 10
- T/C (dose: 20.0 mg/kg/injection, schedule: Q01DX001 (ip), vehicle: water, evaluated on day 30): 166, 175, 225, 288 % of control
- T/C (dose: 20.0 mg/kg/injection, schedule: Q01DX001 (ip), vehicle: water, evaluated on day 35): 218 % of control
- survivor count (dose: 20.0 mg/kg/injection, schedule: Q01DX001 (iv), vehicle: saline): 3 of 6
- T/C (dose: 20.0 mg/kg/injection, schedule: Q04DX003 (ip), vehicle: saline, evaluated on day 30): 135 % of control
- T/C (dose: 20.0 mg/kg/injection, schedule: Q04DX003 (ip), vehicle: saline, evaluated on day 45): 90 and 119 % of control
- T/C (dose: 20.0 mg/kg/injection, schedule: Q04DX003 (ip), vehicle: saline, evaluated on day 50): 90 % of control
- survivor count (dose: 20.0 mg/kg/injection, schedule: Q04DX003 (ip), vehicle: saline): 6 of 6
- T/C (dose: 20.0 mg/kg/injection, schedule: Q04DX003 (ip), vehicle: water, evaluated on day 30): 90, 119, 152 % of control
- T/C (dose: 20.0 mg/kg/injection, schedule: Q04DX003 (ip), vehicle: water, evaluated on day 35): 96 and 166 % of control
- T/C (dose: 20.0 mg/kg/injection, schedule: Q04DX003 (ip), vehicle: water, evaluated on day 40): 93, 97, 101, 134, 355 % of control
- survivor count (dose: 20.0 mg/kg/injection, schedule: Q04DX003 (ip), vehicle: water): 2 of 6, 4 of 6, 5 of 6, 3 of 3, 6 of 6 (3×)
- survivor count (dose: 20.8 mg/kg/injection, schedule: Q04DX003 (ip), vehicle: saline): 5 of 8
- survivor count (dose: 32.0 mg/kg/injection, schedule: Q01DX001 (ip), vehicle: suspension in saline): 6 of 6
- survivor count (dose: 32.0 mg/kg/injection, schedule: Q01DX009 (ip), vehicle: suspension in saline): 3 of 6 and 5 of 6
- survivor count (dose: 32.0 mg/kg/injection, schedule: Q03HX008 (ip), vehicle: saline): 0 of 6
- survivor count (dose: 40.0 mg/kg/injection, schedule: Q01DX001 (ip), vehicle: saline): 5 of 6
- T/C [1]: 137 % of control
- survivor count [1]: 2 of 6, 2 of 3, 3 of 3
- survivor count (dose: 40.0 mg/kg/injection, schedule: Q01DX001 (iv), vehicle: saline): 3 of 6
- T/C [2]: 90 % of control [4 of 6 alive]
- survivor count [2]: 1 of 6, 2 of 6, 3 of 6, 4 of 6 (2×), 5 of 6
- survivor count (dose: 64.0 mg/kg/injection, schedule: Q01DX001 (ip), vehicle: suspension in saline): 5 of 6
- survivor count (dose: 64.0 mg/kg/injection, schedule: Q01DX009 (ip), vehicle: suspension in saline): 4 of 6
- survivor count (dose: 80.0 mg/kg/injection, schedule: Q01DX001 (ip), vehicle: saline): 2 of 6
- survivor count (dose: 80.0 mg/kg/injection, schedule: Q01DX001 (ip), vehicle: water): 0 of 6, 1 of 3, 2 of 3
- survivor count (dose: 80.0 mg/kg/injection, schedule: Q01DX001 (iv), vehicle: saline): 1 of 6
- survivor count (dose: 80.0 mg/kg/injection, schedule: Q04DX003 (ip), vehicle: water): 1 of 6
- survivor count (dose: 128.0 mg/kg/injection, schedule: Q01DX001 (ip), vehicle: suspension in saline): 1 of 6
- survivor count (dose: 128.0 mg/kg/injection, schedule: Q01DX009 (ip), vehicle: suspension in saline): 0 of 6
- survivor count (dose: 256.0 mg/kg/injection, schedule: Q01DX001 (ip), vehicle: suspension in saline): 0 of 6
- survivor count (dose: 256.0 mg/kg/injection, schedule: Q01DX009 (ip), vehicle: suspension in saline): 0 of 6
